The exact form of at least one protein or probe is not confirmed. At least one result comes from cells or an extract, where the contact may be indirect. For some of these results: The comparison behind a weaker result is the experiment's own reference, which may not be listed here. For some of these results: Protein sequences can lack the tags named with them.
What was measured:
NF-κB p50 + NF-κB p65 [1] = assay: EMSA; settings: p50/p65 heterodimer, extract from AGS infected with H. pylori in presence of IL-22; 20 mM HEPES pH 7.9, 1 mM DTT, 2.5 mM MgCl2, 50 mM KCl, 2 µg poly dI:dC, 10 µg nuclear extract in 10 µl, room temperature 30 min; protein in an extract; label: 32P 5' end label
NF-κB p50 [2] = molecular target: T1, NF-κB p50 (UniProt P19838); assay: EMSA; settings: p50/p50 homodimer, extract from AGS infected with H. pylori in presence of IL-22; 20 mM HEPES pH 7.9, 1 mM DTT, 2.5 mM MgCl2, 50 mM KCl, 2 µg poly dI:dC, 10 µg nuclear extract in 10 µl, room temperature 30 min; protein in an extract; label: 32P 5' end label
T1 sequence (looked up, limits assumed): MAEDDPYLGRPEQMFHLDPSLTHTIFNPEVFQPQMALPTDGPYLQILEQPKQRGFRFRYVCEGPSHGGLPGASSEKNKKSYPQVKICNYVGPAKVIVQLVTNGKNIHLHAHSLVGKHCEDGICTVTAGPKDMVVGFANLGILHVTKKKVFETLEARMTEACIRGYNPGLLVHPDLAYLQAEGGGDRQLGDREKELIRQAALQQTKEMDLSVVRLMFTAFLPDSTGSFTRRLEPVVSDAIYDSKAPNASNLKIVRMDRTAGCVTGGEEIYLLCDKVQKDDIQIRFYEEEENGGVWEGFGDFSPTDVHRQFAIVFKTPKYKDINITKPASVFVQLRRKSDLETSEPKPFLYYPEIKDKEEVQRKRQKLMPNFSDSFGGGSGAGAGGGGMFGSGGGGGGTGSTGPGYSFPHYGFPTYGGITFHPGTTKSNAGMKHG

NF-κB p50 + NF-κB p65 [3] = assay: EMSA supershift; settings: p50/p65 heterodimer, H. pylori-infected AGS nuclear extract, diminished by 100x cold probe; 20 mM HEPES pH 7.9, 1 mM DTT, 2.5 mM MgCl2, 50 mM KCl, 2 µg poly dI:dC, 10 µg nuclear extract in 10 µl, room temperature 30 min; protein in an extract; label: 32P 5' end label
NF-κB p50 [4] = molecular target: T1, NF-κB p50; assay: EMSA supershift; settings: p50/p50 homodimer, H. pylori-infected AGS nuclear extract, diminished by 100x cold probe; 20 mM HEPES pH 7.9, 1 mM DTT, 2.5 mM MgCl2, 50 mM KCl, 2 µg poly dI:dC, 10 µg nuclear extract in 10 µl, room temperature 30 min; protein in an extract; label: 32P 5' end label

ATCAATGGGGAAAACCCCATGTGGCAACACG (double strand) [CCL20 promoter -87 to -57 NF-κB probe]
binding result (NF-κB p50 + NF-κB p65 [1]): binds more weakly | binding result (NF-κB p50 [2]): binds more weakly | binding result (NF-κB p50 + NF-κB p65 [3]): binds | binding result (NF-κB p50 [4]): binds

From PMC4019584
